Test results as given in the supplement of paper PMC10849652.
The list shows a part of the results.

The chains behind the UniProt entries cited, without tags or fusion partners. Where a name states a change or a piece, a line headed by the entry shows the natural chain unless it says otherwise.
UniProt P02679: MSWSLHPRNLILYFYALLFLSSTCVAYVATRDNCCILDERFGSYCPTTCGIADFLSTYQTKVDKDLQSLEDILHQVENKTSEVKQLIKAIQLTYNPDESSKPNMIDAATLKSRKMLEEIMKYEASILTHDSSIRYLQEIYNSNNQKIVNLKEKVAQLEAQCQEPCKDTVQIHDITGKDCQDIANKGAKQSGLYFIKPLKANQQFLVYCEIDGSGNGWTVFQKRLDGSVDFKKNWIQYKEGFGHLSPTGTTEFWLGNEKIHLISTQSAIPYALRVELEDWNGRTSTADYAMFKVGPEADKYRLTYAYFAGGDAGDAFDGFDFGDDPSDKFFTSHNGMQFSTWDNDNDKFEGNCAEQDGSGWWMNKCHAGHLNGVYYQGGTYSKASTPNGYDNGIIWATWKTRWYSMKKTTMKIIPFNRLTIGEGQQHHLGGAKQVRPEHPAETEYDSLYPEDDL
UniProt Q9NW38: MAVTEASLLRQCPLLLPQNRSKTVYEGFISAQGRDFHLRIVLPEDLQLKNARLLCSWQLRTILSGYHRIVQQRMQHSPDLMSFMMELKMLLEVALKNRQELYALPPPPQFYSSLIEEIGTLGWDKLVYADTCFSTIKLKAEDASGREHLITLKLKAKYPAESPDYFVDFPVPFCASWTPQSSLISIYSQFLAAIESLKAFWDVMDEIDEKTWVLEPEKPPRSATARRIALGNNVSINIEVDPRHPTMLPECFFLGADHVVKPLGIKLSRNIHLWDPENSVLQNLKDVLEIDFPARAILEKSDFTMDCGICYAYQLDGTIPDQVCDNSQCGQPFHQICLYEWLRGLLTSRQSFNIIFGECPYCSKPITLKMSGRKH
UniProt Q9UKA2: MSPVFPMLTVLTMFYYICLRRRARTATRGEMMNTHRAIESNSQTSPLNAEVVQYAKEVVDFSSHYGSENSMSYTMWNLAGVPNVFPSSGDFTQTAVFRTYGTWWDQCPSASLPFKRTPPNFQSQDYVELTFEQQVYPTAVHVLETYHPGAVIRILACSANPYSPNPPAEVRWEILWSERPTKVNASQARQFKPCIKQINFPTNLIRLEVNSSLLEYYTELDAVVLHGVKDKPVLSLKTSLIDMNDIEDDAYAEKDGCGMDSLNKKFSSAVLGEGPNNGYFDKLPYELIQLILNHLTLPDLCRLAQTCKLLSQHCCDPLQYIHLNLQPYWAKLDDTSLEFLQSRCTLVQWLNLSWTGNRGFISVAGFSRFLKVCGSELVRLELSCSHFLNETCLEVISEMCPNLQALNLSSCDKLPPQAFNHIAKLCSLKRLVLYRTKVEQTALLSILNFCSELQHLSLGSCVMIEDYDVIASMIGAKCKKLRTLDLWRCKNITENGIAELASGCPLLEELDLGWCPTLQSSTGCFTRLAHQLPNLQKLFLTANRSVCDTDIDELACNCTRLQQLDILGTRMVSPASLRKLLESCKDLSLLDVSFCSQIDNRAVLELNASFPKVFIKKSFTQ
UniProt Q9NWM8: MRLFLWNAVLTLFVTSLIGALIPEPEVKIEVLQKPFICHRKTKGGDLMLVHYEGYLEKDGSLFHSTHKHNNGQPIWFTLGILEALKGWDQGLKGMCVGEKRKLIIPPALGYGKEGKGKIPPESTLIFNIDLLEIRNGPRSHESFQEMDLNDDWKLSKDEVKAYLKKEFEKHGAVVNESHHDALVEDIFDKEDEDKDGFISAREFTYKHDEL
UniProt Q96CD0: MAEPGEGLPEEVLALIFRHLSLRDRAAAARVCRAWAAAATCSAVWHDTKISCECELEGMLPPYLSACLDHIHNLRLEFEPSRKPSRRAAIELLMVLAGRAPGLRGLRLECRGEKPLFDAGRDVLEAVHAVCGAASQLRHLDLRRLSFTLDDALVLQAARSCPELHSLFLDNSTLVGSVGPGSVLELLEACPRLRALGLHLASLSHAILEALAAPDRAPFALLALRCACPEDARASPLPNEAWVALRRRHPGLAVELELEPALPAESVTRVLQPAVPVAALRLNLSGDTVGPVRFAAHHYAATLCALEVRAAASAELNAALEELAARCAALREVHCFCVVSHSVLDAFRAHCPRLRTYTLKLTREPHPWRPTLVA
UniProt Q17RN3: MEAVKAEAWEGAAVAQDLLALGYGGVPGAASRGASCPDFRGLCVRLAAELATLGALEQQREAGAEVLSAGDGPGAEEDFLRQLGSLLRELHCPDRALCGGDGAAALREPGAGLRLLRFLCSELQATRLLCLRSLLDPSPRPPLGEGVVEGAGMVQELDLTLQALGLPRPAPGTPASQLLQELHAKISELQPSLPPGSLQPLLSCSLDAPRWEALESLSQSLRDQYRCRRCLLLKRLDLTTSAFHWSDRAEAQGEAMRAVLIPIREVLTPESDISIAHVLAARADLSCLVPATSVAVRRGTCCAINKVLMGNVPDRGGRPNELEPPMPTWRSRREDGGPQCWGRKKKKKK
UniProt Q96AY3, whole entry, looked up: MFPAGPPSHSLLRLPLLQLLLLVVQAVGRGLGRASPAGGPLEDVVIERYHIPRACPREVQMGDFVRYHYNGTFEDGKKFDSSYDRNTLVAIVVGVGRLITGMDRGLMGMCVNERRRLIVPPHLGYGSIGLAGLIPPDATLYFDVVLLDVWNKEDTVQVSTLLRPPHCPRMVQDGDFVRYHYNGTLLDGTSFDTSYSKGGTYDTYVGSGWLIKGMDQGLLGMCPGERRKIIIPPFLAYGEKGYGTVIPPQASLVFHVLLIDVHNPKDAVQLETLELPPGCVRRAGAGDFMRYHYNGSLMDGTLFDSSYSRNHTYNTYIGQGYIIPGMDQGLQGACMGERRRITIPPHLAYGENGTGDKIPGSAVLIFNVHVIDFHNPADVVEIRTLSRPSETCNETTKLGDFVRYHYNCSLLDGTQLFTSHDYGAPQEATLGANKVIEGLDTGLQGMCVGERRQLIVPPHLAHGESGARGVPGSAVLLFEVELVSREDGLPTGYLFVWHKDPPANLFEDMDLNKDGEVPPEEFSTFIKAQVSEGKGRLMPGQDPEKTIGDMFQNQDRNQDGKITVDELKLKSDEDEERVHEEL
UniProt Q8N6M3: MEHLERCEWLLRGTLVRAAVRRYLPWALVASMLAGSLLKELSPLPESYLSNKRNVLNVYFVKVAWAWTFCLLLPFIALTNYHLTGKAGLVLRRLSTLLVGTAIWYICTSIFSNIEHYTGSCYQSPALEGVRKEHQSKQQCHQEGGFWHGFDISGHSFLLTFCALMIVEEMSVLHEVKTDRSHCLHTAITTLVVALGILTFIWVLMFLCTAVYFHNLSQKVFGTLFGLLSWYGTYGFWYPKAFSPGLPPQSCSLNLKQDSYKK
UniProt Q9NYF3: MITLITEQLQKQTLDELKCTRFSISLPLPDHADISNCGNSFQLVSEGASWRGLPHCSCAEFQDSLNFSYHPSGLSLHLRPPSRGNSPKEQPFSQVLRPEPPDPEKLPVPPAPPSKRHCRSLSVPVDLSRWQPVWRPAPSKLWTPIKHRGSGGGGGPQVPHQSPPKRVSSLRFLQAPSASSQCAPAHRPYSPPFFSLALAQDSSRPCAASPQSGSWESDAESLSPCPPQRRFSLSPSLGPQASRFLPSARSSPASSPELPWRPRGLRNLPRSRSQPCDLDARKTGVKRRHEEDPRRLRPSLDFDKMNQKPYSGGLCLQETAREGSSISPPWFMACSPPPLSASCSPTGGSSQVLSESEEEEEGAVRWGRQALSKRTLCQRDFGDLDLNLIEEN
UniProt Q9NVK5: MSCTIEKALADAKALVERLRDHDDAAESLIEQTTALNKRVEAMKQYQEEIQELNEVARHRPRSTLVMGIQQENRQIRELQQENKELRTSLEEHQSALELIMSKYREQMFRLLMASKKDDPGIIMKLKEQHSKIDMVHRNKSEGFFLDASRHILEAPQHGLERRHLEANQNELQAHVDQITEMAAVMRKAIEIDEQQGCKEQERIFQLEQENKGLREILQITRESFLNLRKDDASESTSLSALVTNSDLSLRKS
UniProt Q9Y2H6: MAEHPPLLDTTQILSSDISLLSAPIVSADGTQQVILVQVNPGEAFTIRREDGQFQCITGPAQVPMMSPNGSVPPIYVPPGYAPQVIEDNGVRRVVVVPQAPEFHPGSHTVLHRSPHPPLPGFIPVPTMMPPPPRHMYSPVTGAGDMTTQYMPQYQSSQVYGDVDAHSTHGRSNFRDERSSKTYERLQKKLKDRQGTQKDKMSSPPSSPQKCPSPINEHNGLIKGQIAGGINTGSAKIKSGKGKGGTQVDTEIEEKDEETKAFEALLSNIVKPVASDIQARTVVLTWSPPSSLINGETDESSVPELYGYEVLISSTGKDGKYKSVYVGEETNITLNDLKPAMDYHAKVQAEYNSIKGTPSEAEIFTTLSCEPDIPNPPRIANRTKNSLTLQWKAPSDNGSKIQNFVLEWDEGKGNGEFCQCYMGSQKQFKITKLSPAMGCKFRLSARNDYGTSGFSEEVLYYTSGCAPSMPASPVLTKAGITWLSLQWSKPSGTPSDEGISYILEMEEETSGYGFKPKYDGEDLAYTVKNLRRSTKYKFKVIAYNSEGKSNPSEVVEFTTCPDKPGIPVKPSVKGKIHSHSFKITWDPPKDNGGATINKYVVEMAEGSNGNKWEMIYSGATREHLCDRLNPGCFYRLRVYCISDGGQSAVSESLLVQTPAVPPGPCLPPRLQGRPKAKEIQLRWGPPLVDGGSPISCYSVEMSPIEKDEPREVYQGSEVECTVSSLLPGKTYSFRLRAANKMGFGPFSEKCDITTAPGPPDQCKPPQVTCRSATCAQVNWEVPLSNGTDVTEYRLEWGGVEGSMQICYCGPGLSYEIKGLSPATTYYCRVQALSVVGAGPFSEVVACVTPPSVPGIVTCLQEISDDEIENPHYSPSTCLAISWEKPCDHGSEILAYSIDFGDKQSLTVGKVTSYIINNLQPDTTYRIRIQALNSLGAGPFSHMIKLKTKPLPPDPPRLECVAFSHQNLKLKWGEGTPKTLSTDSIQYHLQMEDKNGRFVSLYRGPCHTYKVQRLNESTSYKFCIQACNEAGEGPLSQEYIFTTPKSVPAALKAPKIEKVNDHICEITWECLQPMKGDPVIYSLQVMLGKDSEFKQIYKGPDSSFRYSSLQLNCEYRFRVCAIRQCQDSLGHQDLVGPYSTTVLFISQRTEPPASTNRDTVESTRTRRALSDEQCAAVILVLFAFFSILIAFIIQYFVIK
UniProt Q13045: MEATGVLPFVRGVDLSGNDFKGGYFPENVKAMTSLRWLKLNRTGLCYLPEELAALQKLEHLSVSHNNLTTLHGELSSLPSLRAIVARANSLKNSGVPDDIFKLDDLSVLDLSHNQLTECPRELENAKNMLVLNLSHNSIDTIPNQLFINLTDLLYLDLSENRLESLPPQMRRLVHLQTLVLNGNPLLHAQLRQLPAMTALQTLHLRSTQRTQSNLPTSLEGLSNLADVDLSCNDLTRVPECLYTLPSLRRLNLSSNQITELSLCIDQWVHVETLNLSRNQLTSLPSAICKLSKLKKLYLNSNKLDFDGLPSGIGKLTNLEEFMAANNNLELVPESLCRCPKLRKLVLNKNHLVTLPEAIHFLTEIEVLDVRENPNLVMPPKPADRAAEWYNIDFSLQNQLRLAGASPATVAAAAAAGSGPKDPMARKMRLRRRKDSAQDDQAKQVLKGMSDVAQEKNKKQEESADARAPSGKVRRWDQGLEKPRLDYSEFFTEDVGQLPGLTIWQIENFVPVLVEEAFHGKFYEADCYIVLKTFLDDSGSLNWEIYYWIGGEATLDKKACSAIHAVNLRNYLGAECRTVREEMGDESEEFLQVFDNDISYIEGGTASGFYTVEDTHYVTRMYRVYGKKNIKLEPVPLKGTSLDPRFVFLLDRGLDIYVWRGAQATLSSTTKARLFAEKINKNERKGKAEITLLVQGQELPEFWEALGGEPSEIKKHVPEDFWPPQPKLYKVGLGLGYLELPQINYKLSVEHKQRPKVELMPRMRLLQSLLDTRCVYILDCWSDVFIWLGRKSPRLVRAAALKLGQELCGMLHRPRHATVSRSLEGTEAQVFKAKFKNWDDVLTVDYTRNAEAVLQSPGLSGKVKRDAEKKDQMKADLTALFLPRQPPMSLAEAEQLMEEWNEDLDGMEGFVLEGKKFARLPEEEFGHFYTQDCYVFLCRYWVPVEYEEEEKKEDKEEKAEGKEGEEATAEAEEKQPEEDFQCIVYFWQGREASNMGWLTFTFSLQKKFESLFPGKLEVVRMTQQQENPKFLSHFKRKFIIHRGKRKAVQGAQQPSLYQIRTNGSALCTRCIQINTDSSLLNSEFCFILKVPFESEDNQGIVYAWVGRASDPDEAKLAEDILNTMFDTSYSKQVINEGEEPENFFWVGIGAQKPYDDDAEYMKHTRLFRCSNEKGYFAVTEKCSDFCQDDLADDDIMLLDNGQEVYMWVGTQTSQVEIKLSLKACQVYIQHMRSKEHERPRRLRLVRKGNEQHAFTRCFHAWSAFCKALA
UniProt O60258: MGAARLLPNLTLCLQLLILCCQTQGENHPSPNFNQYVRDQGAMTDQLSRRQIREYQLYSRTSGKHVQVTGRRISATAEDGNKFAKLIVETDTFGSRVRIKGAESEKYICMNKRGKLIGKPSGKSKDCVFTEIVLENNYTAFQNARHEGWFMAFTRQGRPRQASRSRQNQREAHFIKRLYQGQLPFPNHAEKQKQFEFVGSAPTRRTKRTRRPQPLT

Assays:
Assay in all cases: log2 fold change, soluble protein after heating vs DMSO (PISA); higher = thermal stabilisation; K562 cells, 10 uM, 30 min; active = over 0.2 and 3.5 SD of the protein, either way, in both replicates (recomputed)
[1] = compound: C[C@@H]1COCCN1C2=NC(=NC(=C2)C3(CC3)S(=O)(=O)C)C4=C5C=CNC5=CC=C4
Method in brief: (§1)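 For each measurement, 10 μM compound was applied for 30 min to K562 cells at 2×10^6 cells/mL. Aliquots were heated for 3 min across 48°C-58°C, pooled, and extracted in PBS with 0.5% NP-40 at 4°C; the supernatant after 21,000xg for 90 min was soluble protein. This was quantified by TMTpro 16plex LC-MS/MS with channel sums equalised, and thermal stability was reported relative to control samples from duplicates, on a log2 fold-change scale.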

[2] = compound: C[C@H](Nc1ncnc2nc[nH]c12)c1cc2cccc(Cl)c2c(=O)n1-c1ccccc1 [duvelisib]
Method in brief: as §1

[3] = compound: Cc1cc(Nc2cc(N3CCN(C)CC3)nc(Sc3ccc(NC(=O)C4CC4)cc3)n2)n[nH]1 [tozasertib]
Method in brief: as §1

[4] = compound: Cc1cc(SCc2sc(-c3ccc(C(F)(F)F)cc3)nc2C)ccc1OCC(=O)O
Method in brief: as §1

[5] = compound: CON(C)C(=O)N1N=C(c2cc(F)ccc2F)S[C@@]1(CCCN)c1ccccc1 [filanesib]
Method in brief: as §1

[6] = compound: COc1cc(Nc2ncc3c(n2)-c2ccc(Cl)cc2C(c2c(F)cccc2OC)=NC3)ccc1C(=O)O [alisertib]
Method in brief: as §1

[7] = compound: COc1cc2nc(-c3cc(F)ccc3O)nc(N[C@@H]3CNC[C@H]3C(C)(C)O)c2cc1OC
Method in brief: as §1

[8] = compound: COc1cccc2cc(-c3nc([C@H]4CC[C@H](C(=O)O)CC4)n4ncnc(N)c34)[nH]c12
Method in brief: as §1

[9] = compound: CS(=O)(=O)CCNCc1ccc(-c2ccc3ncnc(Nc4ccc(OCc5cccc(F)c5)c(Cl)c4)c3c2)o1 [lapatinib]
Method in brief: as §1

[10] = compound: CS(=O)(=O)N1CCN(Cc2cc3nc(-c4cccc5[nH]ncc45)nc(N4CCOCC4)c3s2)CC1 [pictilisib]
Method in brief: as §1

[11] = compound: CS(=O)(=O)c1ccc(-c2cnc(N)c(C(=O)Nc3ccccc3)n2)cc1
Method in brief: as §1

[12] = compound: Cc1cc(Nc2cc(CN3CCOCC3)c3nc(C)c(Cc4ccc(Cl)cc4F)n3n2)n[nH]1 [gandotinib]
Method in brief: as §1

[13] = compound: Cc1ccc(C(=O)N(CCCN)[C@@H](c2nc3cc(Cl)ccc3c(=O)n2Cc2ccccc2)C(C)C)cc1 [ispinesib]
Method in brief: as §1

[14] = compound: CO[C@H]1C[C@@H]2CC[C@@H](C)[C@@](O)(O2)C(=O)C(=O)N2CCCC[C@H]2C(=O)O[C@H]([C@H](C)C[C@@H]2CC[C@H](n3cnnn3)[C@H](OC)C2)CC(=O)[C@H](C)/C=C(\C)[C@@H](O)[C@@H](OC)C(=O)[C@H](C)C[C@H](C)/C=C/C=C/C=C/1C [zotarolimus]
Method in brief: as §1

[15] = compound: COc1cc(C(=O)O)ccc1NC(=O)[C@@H]1N[C@@H](CC(C)(C)C)[C@](C#N)(c2ccc(Cl)cc2F)[C@H]1c1cccc(Cl)c1F [idasanutlin]
Method in brief: as §1

[16] = compound: C[C@H](C1=CC=C(C=C1)C(=O)NC2=C3C=CNC3=NC=C2)N
Method in brief: as §1

[17] = compound: COc1cc2ncnc(Nc3ccc(F)c(Cl)c3)c2cc1OCCCN1CCOCC1 [gefitinib]
Method in brief: as §1

[18] = compound: COC1=CC=C(C=C1)CN2C=CC3=C2C=C(C=C3)C(=O)NO
Method in brief: as §1

[19] = compound: C[C@@H](Oc1cc(-c2cnn(C3CCNCC3)c2)cnc1N)c1c(Cl)ccc(F)c1Cl [crizotinib]
Method in brief: as §1

[20] = compound: Cc1ccc(-n2nc(C(C)(C)C)cc2NC(=O)Nc2ccc(OCCN3CCOCC3)c3ccccc23)cc1 [doramapimod]
Method in brief: as §1

Measured: log2 fold change

FAM83G (UniProt A6ND36)
inactive: [1] -0.173 | [2] 0.134 | [3] -0.034 | [4] -0.054

FAM219B (UniProt Q5XKK7)
inactive: [5] -0.3 | [6] -0.033 | [7] -0.038 | [8] 0.012 | [9] 0.034 | [10] -0.024 | [11] 0.225 | [12] -0.023

FIG4 (UniProt Q92562)
inactive: [7] -0.016 | [9] -0.074

FGG (UniProt P02679)
inactive: [7] -0.068 | [9] -0.001 | [10] -0.367 | [12] -0.153 | [13] -0.052

FANCL isoform 2 (UniProt Q9NW38)
inactive: [14] -0.093 | [15] -0.363 | [16] -0.179

FBXL4 (UniProt Q9UKA2)
inactive: [5] -0.165 | [6] 0.163 | [8] -0.036 | [10] -0.122 | [11] -0.242 | [1] 0 | [2] -0.052 | [12] 0.016 | [4] 0.143

FAM222B (UniProt Q8WU58)
inactive: [15] 0.077 | [6] -0.04 | [7] -0.067 | [8] 0.111 | [9] -0.044 | [1] 0.12 | [2] 0.13 | [3] -0.034 | [4] 0.053 | [13] -0.126

Three successive records out of the list so far, for reference:
FAM83G (UniProt A6ND36)
inactive: [1] -0.173 | [2] 0.134 | [3] -0.034 | [4] -0.054

FAM219B (UniProt Q5XKK7)
inactive: [5] -0.3 | [6] -0.033 | [7] -0.038 | [8] 0.012 | [9] 0.034 | [10] -0.024 | [11] 0.225 | [12] -0.023

FIG4 (UniProt Q92562)
inactive: [7] -0.016 | [9] -0.074

(cont.)

FKBP14 (UniProt Q9NWM8)
inactive: [5] 0.038 | [14] -0.019 | [15] 0.007 | [6] -0.021 | [7] -0.045 | [17] 0.046 | [8] 0.025 | [9] -0.025 | [10] 0.031 | [11] 0.039 | [1] 0.016 | [16] 0.037 | [2] -0.089 | [12] 0.012 | [3] -0.021 | [4] 0.129 | [13] -0.02

FAM76A isoform 3 (UniProt Q8TAV0)
inactive: [5] -0.029 | [15] 0.047 | [7] 0.066 | [9] -0.015 | [10] 0.084 | [11] 0.065 | [1] -0.078 | [12] -0.018 | [3] -0.087

FGB (UniProt P02675)
inactive: [5] 0.063 | [14] -0.056 | [15] -0.042 | [6] 0.304 | [17] -0.024 | [8] -0.05 | [10] -0.007 | [11] -0.113 | [16] 0.201 | [12] -0.117 | [3] 0.038 | [13] -0.073

FLT1 (UniProt P17948)
inactive: [7] 0.352 | [9] -0.246 | [2] -0.015 | [4] -0.043

FBXO11 isoform 5 (UniProt Q86XK2)
inactive: [5] -0.007 | [6] -0.029 | [7] 0.108 | [8] -0.129 | [9] -0.068 | [11] 0.091 | [1] -0.286 | [3] -0.066

FNBP1 (UniProt Q96RU3)
inactive: [15] 0.054 | [2] -0.101 | [3] -0.156 | [4] 0.408

FNIP1 (UniProt Q8TF40)
inactive: [14] 0.201 | [6] -0.087 | [7] -0.109 | [8] 0.053 | [9] 0.059 | [10] 0.009 | [1] 0.076 | [16] -0.007 | [2] 0.026 | [12] -0.055 | [3] -0.046 | [4] 0.063 | [13] -0.129

FBXO44 (UniProt Q9H4M3)
inactive: [5] -0.014 | [14] 0.028 | [17] 0.07 | [11] 0.003 | [16] -0.067 | [13] -0.027

FAT4 (UniProt Q6V0I7)
inactive: [5] 0.065 | [15] 0.036 | [6] 0.13 | [17] 0.071 | [8] -0.007 | [10] 0.115 | [11] 0.042 | [12] -0.213 | [3] -0.093 | [13] -0.299

FBXL8 (UniProt Q96CD0)
inactive: [5] 0.024 | [14] -0.149 | [11] -0.162 | [1] 0.099 | [16] -0.023 | [3] -0.165

FASTKD5 (UniProt Q7L8L6)
inactive: [5] -0.323 | [14] -0.316 | [15] -0.074 | [7] 0.319 | [9] -0.288 | [10] 0.073 | [11] 0.096 | [1] 0.104 | [16] 0.347 | [2] 0.149 | [12] -0.396 | [3] 0.089 | [4] 0.319 | [13] 0.011

FAM86B2 (UniProt P0C5J1)
inactive: [5] 0.004 | [11] 0.045

FBXO33 (UniProt Q7Z6M2)
inactive: [1] 0.04

FMNL1 isoform 3 (UniProt O95466)
inactive: [5] 0.433 | [15] 0.058 | [11] 0.262 | [1] -0.079

FBXO2 (UniProt Q9UK22)
inactive: [10] -0.159 | [12] -0.046

FAM98C (UniProt Q17RN3)
inactive: [14] -0.027 | [15] -0.016 | [6] 0.101 | [8] 0.371 | [10] 0.063 | [16] 0.288 | [12] 0.013

FKBP10 (UniProt Q96AY3)
inactive: [5] 0.075 | [10] 0.046 | [11] -0.083 | [12] -0.067

FITM2 (UniProt Q8N6M3)
inactive: [6] 0.045 | [17] 0.006 | [8] -0.124

FAM53C (UniProt Q9NYF3)
inactive: [5] 0.023 | [14] -0.29 | [7] -0.174 | [17] -0.003 | [9] 0.158 | [10] 0.011 | [11] 0.03 | [16] -0.034 | [12] -0.024 | [3] 0.144 | [13] -0.105

FER (UniProt P16591)
inactive: [5] 0.223 | [15] 0.911 | [10] 0.056 | [11] -0.1 | [12] -0.063

FGFR1OP2 isoform 2 (UniProt Q9NVK5)
inactive: [14] 0.142 | [7] -0.098 | [9] 0.19 | [16] -0.054

FMR1NB (UniProt Q8N0W7)
inactive: [15] 0.039 | [1] -0.288

FNDC3A (UniProt Q9Y2H6)
inactive: [3] -0.212

FLII isoform 2 (UniProt Q13045)
inactive: [5] -0.167 | [14] 0.313 | [15] -0.065 | [7] 0.028 | [9] 0.036 | [11] -0.009 | [1] -0.009 | [16] -0.047 | [3] -0.182 | [13] 0.056

FBRSL1 (UniProt Q9HCM7)
inactive: [15] -0.21 | [17] 0.024 | [1] -0.092 | [3] -0.043 | [13] -0.165

FAXDC2 (UniProt Q96IV6)
inactive: [18] 0.169 | [17] -0.024 | [19] 0.028 | [20] -0.155

FGF17 (UniProt O60258)
inactive: [10] -0.393 | [12] 0.429

FKRP (UniProt Q9H9S5)
inactive: [5] -0.066 | [15] -0.076 | [6] 0.179 | [7] 0.014 | [17] -0.023 | [8] -0.029 | [9] -0.016 | [10] 0.198 | [11] 0.032 | [1] -0.041 | [2] 0.034 | [12] -0.052 | [3] -0.199 | [4] -0.074 | [13] -0.01

FHL1 isoform 4 (UniProt Q13642)
inactive: [5] 0.012 | [14] -0.241 | [15] 0.081 | [7] 0.078 | [17] -0.301 | [9] 0.165 | [11] 0 | [1] -0.1 | [16] -0.047 | [2] 0.237 | [3] -0.01 | [4] -0.162
